The assay deals with T1, ERp44 (human (endogenous in T47D, BT474, MDA-MB-468)) (UniProt Q9BS26).
T1 sequence: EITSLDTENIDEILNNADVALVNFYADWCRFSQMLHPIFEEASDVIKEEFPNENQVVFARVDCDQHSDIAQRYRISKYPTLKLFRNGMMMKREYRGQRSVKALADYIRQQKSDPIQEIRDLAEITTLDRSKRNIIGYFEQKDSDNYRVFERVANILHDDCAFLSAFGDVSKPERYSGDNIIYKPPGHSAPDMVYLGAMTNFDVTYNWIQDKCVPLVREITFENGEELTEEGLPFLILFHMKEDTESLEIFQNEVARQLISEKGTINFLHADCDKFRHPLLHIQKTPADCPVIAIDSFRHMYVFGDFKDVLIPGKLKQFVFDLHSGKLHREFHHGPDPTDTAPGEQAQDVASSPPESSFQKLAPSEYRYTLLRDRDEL
Description: co-IP.

Sequences of proteins named here, by UniProt entry; tags and fusion partners are left off. A change or cut given only in a name is not applied to a line headed by its entry.
UniProt O14763: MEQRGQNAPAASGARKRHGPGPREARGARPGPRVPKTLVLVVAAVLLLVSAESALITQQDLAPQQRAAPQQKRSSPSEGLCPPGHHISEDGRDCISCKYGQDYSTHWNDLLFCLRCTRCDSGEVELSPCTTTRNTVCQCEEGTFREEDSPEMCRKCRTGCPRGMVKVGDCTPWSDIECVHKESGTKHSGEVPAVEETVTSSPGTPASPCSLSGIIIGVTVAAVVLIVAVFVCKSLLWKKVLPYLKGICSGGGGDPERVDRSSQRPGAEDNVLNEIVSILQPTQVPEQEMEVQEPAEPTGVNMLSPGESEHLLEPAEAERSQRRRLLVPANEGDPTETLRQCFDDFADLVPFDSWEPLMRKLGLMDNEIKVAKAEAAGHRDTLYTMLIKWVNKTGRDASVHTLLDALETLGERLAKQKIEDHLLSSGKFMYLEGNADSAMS

We go through one substance from publication doi:10.1101/2021.01.13.426390.

Results are given in words; binding and its absence hold for the method and conditions named. Binding seen in cells or lysates may run through a third protein. Binding calls can cover weak binding; strength is not graded here.

On to “DR5[Δ81-178] (from UniProt O14763) (receptor)”, for which the binding entry was “binds weakly”.
